In paper PMC8131924:
These are yes or no findings as the source states them, for the method shown. For part of these data: Binding seen in cells or lysates may run through a third protein. Some entries that bind do so weakly or less than the wild type. Where a sequence is shown, tags or fusion partners need not be part of it. Each block holds one binder with its values, some of them ahead of it.

How the values were obtained:
[1] = molecular target: recombinant full-length His6-TBC1D4 (nonphosphorylated) (mouse) (UniProt Q8BYJ6); assay: SEC; purified TBC1D4 on an ENrich SEC650 column, 50 mM Tris-HCl pH 7.5, 1 ml/min; apparent Mr from standards; both purified
[2] = molecular target: T1, HA-TBC1D4 construct C1 (Met1-Leu478) (mouse) (UniProt Q8BYJ6); assay: co-IP; HEK293 cells coexpressing HA-TBC1D4 constructs and 3xFLAG-TBC1D4; lysis in 150 mM NaCl, 1% Triton X-100, 50 mM Tris-HCl pH 8; anti-HA magnetic beads, 30 min at 4 °C; western blot
T1 sequence: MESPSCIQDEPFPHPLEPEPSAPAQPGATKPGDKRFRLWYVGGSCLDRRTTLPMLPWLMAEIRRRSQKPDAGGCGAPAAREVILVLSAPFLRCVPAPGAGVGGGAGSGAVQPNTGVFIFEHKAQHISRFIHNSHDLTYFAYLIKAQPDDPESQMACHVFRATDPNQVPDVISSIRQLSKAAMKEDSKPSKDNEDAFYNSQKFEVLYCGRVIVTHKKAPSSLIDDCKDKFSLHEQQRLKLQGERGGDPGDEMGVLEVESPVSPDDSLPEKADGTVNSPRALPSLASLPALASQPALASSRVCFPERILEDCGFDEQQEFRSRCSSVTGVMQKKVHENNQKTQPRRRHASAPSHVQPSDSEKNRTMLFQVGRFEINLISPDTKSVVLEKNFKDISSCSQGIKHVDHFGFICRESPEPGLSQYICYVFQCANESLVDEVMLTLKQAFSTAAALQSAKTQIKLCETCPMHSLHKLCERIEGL

[3] = molecular target: full-length TBC1D4 expressed in HEK293 cells (3xFLAG-tagged copy and HA-tagged copy) (mouse) (UniProt Q8BYJ6); assay: as above

binding [1]: binds
B1: recombinant full-length His6-TBC1D4 (nonphosphorylated) (protein, UniProt Q8BYJ6 1-1307)
chain: MESPSCIQDEPFPHPLEPEPSAPAQPGATKPGDKRFRLWYVGGSCLDRRTTLPMLPWLMAEIRRRSQKPDAGGCGAPAAREVILVLSAPFLRCVPAPGAGVGGGAGSGAVQPNTGVFIFEHKAQHISRFIHNSHDLTYFAYLIKAQPDDPESQMACHVFRATDPNQVPDVISSIRQLSKAAMKEDSKPSKDNEDAFYNSQKFEVLYCGRVIVTHKKAPSSLIDDCKDKFSLHEQQRLKLQGERGGDPGDEMGVLEVESPVSPDDSLPEKADGTVNSPRALPSLASLPALASQPALASSRVCFPERILEDCGFDEQQEFRSRCSSVTGVMQKKVHENNQKTQPRRRHASAPSHVQPSDSEKNRTMLFQVGRFEINLISPDTKSVVLEKNFKDISSCSQGIKHVDHFGFICRESPEPGLSQYICYVFQCANESLVDEVMLTLKQAFSTAAALQSAKTQIKLCETCPMHSLHKLCERIEGLYPPRAKLVIQRHLSSLTDNEQADIFERVQKMKPISDQEENELVILHLRQLCEAKQRTHVHIGEGPAIISNSTIPENVTSGGRFKLDVLKNKAKRSLTSSLENIFSRGANRMRGRLGSMDSFERANSLASEKDFSPGDSPPGTPPASPLSSAWHAFPEEDSDSPQFRRRAHTFSHPPSSSRRKLNLQDGKAHGLRSPLLRQSSSEQCSIVPSARRMYKESNSSCSLPSLHTSFSAPSFTAPSFLKSFYQNSGRLSPQYENEIRQDTASESSDGEGRKRTSSTCSNESLNAGGTPVTPRRVSWRQRIFLRVASPVNKSPSAMQQQKDGLDRTELLPLSPLSPTMEEEPLIIFLSGDEDTEKVEEKKKSKELKSLWKKAIHQQILLLRMEKENQKLEEARRDELQSRKVKLDYEEVGTCQKEILIAWDKKLLNCRTKIRCDMEDIHTSLKEGVPKSRRGEIWQFLALQYRLRHRLPNKHQPPDTSYKELLKQLTAQQHAILVDLGRTFPTHPYFSVQLGAGQLSLFNLLKAYSLLDKEVGYCQGISFVAGVLLLHMSEEQAFEMLKFLMYDLGFRKQYRPDMMSLQIQMYQLSRLLHDYHRELYNHLEENEISPSLYAAPWFLTLFASQFPLGFVARVFDIIFLQGTEVIFKVALSLLSSQEALIMECENFENIVEFLKSTLPDMNTTEMEKIITQVFEMDISKQLHAYEVEYHVLQDELLESSYACEDNESLEKLERANNQLKRQNMDLLEKLQVAHAKIQALESNLETLLTRETKMKALIRTLEQDKMAYQKTVEQIRKLLPADALANCELLLKDLTHPTNDKAKAGNKP

binding [2]: binds
binding [3]: binds
B2: full-length TBC1D4 expressed in HEK293 cells (3xFLAG-tagged copy and HA-tagged copy) (protein, UniProt Q8BYJ6 1-1307)
chain: B1 chain
